The experiment deals with Breast cancer (MDA-MB-468). Description: anti-proliferative activity under hypoxic condition (MTT), MDA-MB-468. The experiment is classed as cell-based. To be noted: Homo sapiens, hypoxic conditions (1%O2, 5% CO2 and 94% N2), mean ± S.D. of three experiments. The protocol: All cells were incubated in hypoxic atmosphere (1% O2, 5% CO2, and 94%N2) and maintained at 37 °C. All procedures to determine compounds cytotoxicity were accomplished using MTT assay as reported,[59],[60].

Each structure is given as a SMILES string.

This is an account of results in article PMC9537541, “Synthesis and anticancer activity of new benzensulfonamides incorporating s-triazines as cyclic linkers for inhibition of carbonic anhydrase IX” (Scientific Reports, 2022).

One may read the IC50 as the point on the concentration scale where inhibition reaches its midpoint. A lower IC50 goes with greater potency. Consider `CN[C@@H]1C[C@H]2O[C@@](C)([C@@H]1OC)n1c3ccccc3c3c4c(c5c6ccccc6n2c5c31)C(=O)NC4` [Staurosporine, reference compound], for which half-maximal inhibition (IC50) required 6.07 ± 0.03 µM.
